Experimental data: PubChem BioAssay AID720505 (Drosophila RNAi Screening Center, 2013)

- Test: 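Fly regulators or components of the CRAC channel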 (primary screen)
- Cells: Drosophila S2R+ cells
- Reagents: long dsRNA against Drosophila genes
- Challenge: thapsigargin (2 µM) in calcium-free buffer to empty internal stores, then 2 mM calcium added back
- Detection: 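Fluo-4 signal in 384-well plates read on a FLIPR after thapsigargin (2 µM, calcium-free) store depletion and 2 mM calcium add-back; unnormalised mean endpoint per well; screen run twice, selected wells retested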
- Direction: calcium signal and retest calcium signal: higher = more calcium entry after store depletion
- Rule for the call: 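About 1500 genes called as lowering calcium entry, by varying amounts, judged against per-plate control wells with STIM1 as positive and Rho1 as negative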
- Meaning of the calls: active = called as lowering calcium entry; inactive = not called
The screen tested about 20,000 reagents; shown is a random part of those that have a named target and a result. Over the whole deposit, about 2,100 (10%) are marked active. 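Raw plate signals without normalisation; calls rest on control-based scores that were not deposited; replicate 2 separates called from uncalled poorly.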 Unmarked entries are inactive. A plus sign joins genes that one reagent is predicted to hit. Reagent sequences are not shown. Not stated in the record: the amount of reagent, the time to read-out.

Gene	dsRNA	calcium signal, replicate 1	calcium signal, replicate 2	retest calcium signal, replicate 1	retest calcium signal, replicate 2
CG4239	DRSC19885	133	127		
Atat	DRSC10392	87.3	155		
CG12723	DRSC19499	124	95	95.8	106
Sgs5	DRSC16862	146	161		
Tim13	DRSC09848	63.8	74.3		
CG44433	DRSC06517	165	161		
CG44433	DRSC06518	134	120		
Tif-IA	DRSC03717	66.5 (active)	146		
Tif-IA	DRSC03726	72.6	122		
CG6380	DRSC02950	132	103		
CG4041	DRSC18339	150	95.1		
CG7298	DRSC10802	86.5	80.5		
CG3356	DRSC04358	183	96.2		
Mov10	DRSC07012	65.2 (active)	132		
polo	DRSC11384	109	81.3	113	96.6
polo	DRSC22359	93.9	208		
CG9467	DRSC16498	129	141		
Wbp2	DRSC09821	162	83.5		
MtnB	DRSC22744	93.2	187		
CG34225	DRSC05270	121	101		
CG11723	DRSC00324	88.6	98.6		
scro	DRSC17102	120	155		
sol	DRSC20587	90.9	116		
Rpp30	DRSC00320	72.9	151		
CLIP-190	DRSC03283	89	101		
CG43317	DRSC15000	113	149		
Vha68-1	DRSC03470	93	101		
Doc3	DRSC10480	103	70.1		
CG3246	DRSC00584	161	140		
RecQ4	DRSC11265	76	86.9		
hry	DRSC11353	146	101		
hry	DRSC23249	73.3	121		
tbrd-3	DRSC04295	77	129		
Tango9	DRSC14173	116	92		
Cpr65Ea	DRSC11027	89.8	83.5		
m-cup	DRSC14430	134	148		
Hsp70Bc	DRSC16053	131	93.5		
CG7218	DRSC16216	171	403		
mh	DRSC20168	68.9 (active)	135		

Next part (14 carried over from the part before).
Gene	dsRNA	calcium signal, replicate 1	calcium signal, replicate 2	retest calcium signal, replicate 1	retest calcium signal, replicate 2
CG43317	DRSC15000	113	149		
Vha68-1	DRSC03470	93	101		
Doc3	DRSC10480	103	70.1		
CG3246	DRSC00584	161	140		
RecQ4	DRSC11265	76	86.9		
hry	DRSC11353	146	101		
hry	DRSC23249	73.3	121		
tbrd-3	DRSC04295	77	129		
Tango9	DRSC14173	116	92		
Cpr65Ea	DRSC11027	89.8	83.5		
m-cup	DRSC14430	134	148		
Hsp70Bc	DRSC16053	131	93.5		
CG7218	DRSC16216	171	403		
mh	DRSC20168	68.9 (active)	135		
CG8778	DRSC07264	91.8	134		
CG6254	DRSC16002	102	141		
Ttc1	DRSC15016	109	141		
Ttc1	DRSC22469	141	200		
e(y)3	DRSC19450	138	167		
CG13492	DRSC04137	72.9	195		
Slip1	DRSC17146	114	136		
CG8854	DRSC07288	148	145		
CG9302	DRSC03191	76.5	102		
Tmf	DRSC18368	254	103		
baz	DRSC20309	109	145		
CG3544	DRSC00613	116	148		
CG11911	DRSC00331	90.3	175		
DppIII	DRSC16241	88.4	93.1		
CG17192	DRSC15186	150	178		
nAChRalpha6	DRSC01096	184	106		
nAChRalpha6	DRSC01098	136	81.8		
nAChRalpha6	DRSC02738	111	147		
rush	DRSC18568	80.5	96.4		
CG10147	DRSC09706	94.3	68.3		
SA2	DRSC08385	120	136		
XRCC1	DRSC18729	114	68.6		
Atx2	DRSC15727	75.5 (active)	87.2		
Atx2	DRSC23010	132	109		
CG42525	DRSC08026	6053	124		
dpr16	DRSC12217	65.3 (active)	118		
dpr16	DRSC12249	104	123		
CG13216	DRSC06338	83.9	82.4		
CG2685	DRSC18463	86.4	130		
CG3587	DRSC18541	87.6	85.1	74.7	72.5
CG3587	DRSC21966	78.2	244		
Adsl	DRSC15500	210	245		
BtbVII	DRSC08151	51.9	101		
BtbVII	DRSC08415	68.8 (active)	127		
CG12971	DRSC11681	64.9 (active)	174		
CG16713	DRSC00477	146	109		
CG17768 + LSm-4	DRSC02845	187	148		
CG14408	DRSC19595	155	121		
lectin-46Ca	DRSC06612	148	150	75.9	108
timeout	DRSC17078	77.6	108		
timeout	DRSC17079	103	108		
timeout	DRSC17080	99.7	121		
timeout	DRSC17081	123	157		
timeout	DRSC21535	178	79.3		
Ppat-Dpck	DRSC09744	125	75.2		
CG12567	DRSC20845	69.2 (active)	134		
CG8547	DRSC07211	177	150		
CG17385	DRSC06664	96.4	118		
miple1	DRSC08722	98.8	90.1		
CG7423	DRSC20044	188	97.6		
lobo	DRSC14662	174	124		
lobo	DRSC14663	175	198		
ttm2	DRSC08268	92.6	62.7		
Opa1	DRSC07191	122	193		
Rad17	DRSC16811	139	206		
Ac78C	DRSC11602	91.7 (active)	112		
Ac78C	DRSC11619	67.2 (active)	95		
Npc1b	DRSC20488	201	78.6		
CG30414	DRSC04372	104	166		
CG11790	DRSC14390	204	252		
Jhbp15	DRSC15217	140	121		
casp	DRSC07164	140	104		
CG15767	DRSC18073	68.3 (active)	202		
CG3631	DRSC15503	132	171		
eIF4G2	DRSC14207	239	340		
eIF4G2	DRSC21739	147	89.8		
CG2120	DRSC18207	167	154		
